Experimental data reported in patent publication US20110190483.

Chains of the proteins cited; added tags and fusions are not shown. Lines headed by an entry give the natural chain unless they say otherwise; changes in a name come on top.
UniProt P00760: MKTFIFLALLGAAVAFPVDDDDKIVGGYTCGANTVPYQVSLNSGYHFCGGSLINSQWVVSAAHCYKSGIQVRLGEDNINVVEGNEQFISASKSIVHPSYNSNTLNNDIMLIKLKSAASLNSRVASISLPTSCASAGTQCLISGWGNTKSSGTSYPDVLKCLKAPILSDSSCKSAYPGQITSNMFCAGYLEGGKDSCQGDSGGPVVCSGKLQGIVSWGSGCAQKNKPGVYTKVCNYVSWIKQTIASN
UniProt P22629: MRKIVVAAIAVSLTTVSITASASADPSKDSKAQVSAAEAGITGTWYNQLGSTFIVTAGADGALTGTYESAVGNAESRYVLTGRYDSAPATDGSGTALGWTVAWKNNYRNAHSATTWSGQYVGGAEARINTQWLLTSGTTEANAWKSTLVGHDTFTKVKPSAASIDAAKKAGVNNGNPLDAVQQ

Key:
trypsin (Bos taurus) [1] = target: trypsin (Bos taurus) (UniProt P00760); experiment: FP; conditions: no arms; low salt: 5 mM KCl, 25 mM Hepes pH 7.4; +/-0.7e-5; non-specific electrostatic; purified native protein; protein details: Sigma Aldrich, from bovine pancreas; label: fluorescein on 5'-terminal dT; folded or branched DNA; variant of AC 1 (ODN 1, Formula 3)
trypsin (Bos taurus) [2] = target: trypsin (Bos taurus) (UniProt P00760); experiment: EMSA; conditions: with thrombin 1:1:1, 500 mM NaCl, purified native protein, protein details: Sigma Aldrich, from bovine pancreas, folded or branched DNA
streptavidin = streptavidin (UniProt P22629); experiment: binding assay; conditions: control without biotin; lower absorbance change than AC-X1; purified recombinant protein; protein details: immobilized on NUNC 96-well plates (Thermo Fisher); folded or branched DNA

## TTGGTTGGTGTGGTTGGT [ODN 4 (Formula 6)]
Trypsin (Bos taurus) [1]
  Kd: 31 µM

## TGGTTGGTGTGGTTGGT [m-TBA]
Trypsin (Bos taurus) [2]; 5'-benzamidine arm via C10 spacer, 3'-iodophenylthiourea arm via C6 spacer, ternary complex confirmed by SDS-PAGE, variant of AC 1 (ODN 1, Formula 3)
  binding result: binds

## TGGTTGGTGTGGTTGGT [TBA]
Trypsin (Bos taurus) [2]; no arms, no spacers, no ternary complex, variant of m-TBA
  binding result: no binding

## TGGGTAGGGCGGGTTGGGT [HBA (hemin-binding aptamer)]
streptavidin
  binding result: no binding

For some of these results: Negatives hold for the conditions tested. For some of these results: For at least one entry, the source does not settle the construct or the ends of the probe.
